The list does not hold the whole screen: it is rich in T/C values a quarter to a half above the control, in often repeated tests (any T/C) and in doses without a T/C. Further doses and runs are listed elsewhere. T/C gives the treated animals as a percentage of the vehicle group. Some doses have a count of surviving animals in place of a T/C: the source files T/C as zero there, which appears to mark a toxic dose or a test without result, not a measured value. Some doses without a T/C left all or most animals alive at the check, yet need not have been tolerated: the source hardly ever lists a survival T/C far under the control, and the zero likely stands for such cases as well. Survivors were counted at the toxicity check, usually on the fifth day, unless a day is given; later deaths do not show. Schedules are NCI's codes, read here as Q, the interval in days (D) or hours (H), X, the number of doses. Some entries were tested several times; the results are listed from low to high. For survival time, the PubChem record calls one and a half times the control and up active, and a quarter to a half above the control has no call in these data; cut-offs in other NCI protocols can differ.
System: L1210 leukemia ip in BDF1 mice, survival T/C
Assay: NCI In Vivo Anticancer Drug Screen. Data for tumor model L1210 Leukemia (intraperitoneal) in B6D2F1 (BDF1) mice
Details: T/C endpoint: mean survival time, higher T/C = longer survival
[1] = dose: 100.0 mg/kg/injection, schedule: Q04DX003 (ip), vehicle: Klucel (hydroxypropylcellulose) (HPC)
[2] = dose: 200.0 mg/kg/injection, schedule: Q04DX003 (ip), vehicle: Klucel (hydroxypropylcellulose) (HPC)
[3] = dose: 400.0 mg/kg/injection, schedule: Q04DX003 (ip), vehicle: Klucel (hydroxypropylcellulose) (HPC)
[4] = dose: 6.25 mg/kg/injection, schedule: Q01DX009 (ip), vehicle: other
[5] = dose: 50.0 mg/kg/injection, schedule: Q01DX009 (ip), vehicle: other
[6] = dose: 100.0 mg/kg/injection, schedule: Q01DX009 (ip), vehicle: Klucel (hydroxypropylcellulose) (HPC)
[7] = dose: 400.0 mg/kg/injection, schedule: Q01DX009 (ip), vehicle: Klucel (hydroxypropylcellulose) (HPC)
[8] = dose: 200.0 mg/kg/injection, schedule: Q01DX009 (ip), vehicle: water
[9] = dose: 400.0 mg/kg/injection, schedule: Q01DX009 (ip), vehicle: water
[10] = dose: 50.0 mg/kg/injection, schedule: Q01DX009 (ip), vehicle: Klucel (hydroxypropylcellulose) (HPC)

In the case of `O=[N+]([O-])c1ccc(Oc2cc(Cl)c(Cl)cc2Cl)c([N+](=O)[O-])c1`, the survivor count (dose: 100.0 mg/kg/injection, schedule: Q01DX001 (ip), vehicle: other) is reported as 6 of 6 and the survivor count (dose: 200.0 mg/kg/injection, schedule: Q01DX001 (ip), vehicle: other) is reported as 6 of 6.
With `CCN=C(c1ccc(NC(=O)c2ccc(C(=O)Nc3ccc(C(=NCC)N(CC)C(=O)Nc4ccc(OC)cc4)cc3)cc2)cc1)N(CC)C(=O)Nc1ccc(OC)cc1` the T/C (dose: 9.0 mg/kg/injection, schedule: Q01DX015 (ip), vehicle: methylcellulose (MC)) was 134 % of control, the T/C (dose: 18.0 mg/kg/injection, schedule: Q01DX015 (ip), vehicle: methylcellulose (MC)) was 141 % of control and the survivor count (dose: 25.0 mg/kg/injection, schedule: Q01DX015 (ip), vehicle: methylcellulose (MC)) was 1 of 6. The survivor count (dose: 50.0 mg/kg/injection, schedule: Q01DX015 (ip), vehicle: methylcellulose (MC)) was 0 of 6, the survivor count (dose: 100.0 mg/kg/injection, schedule: Q01DX015 (ip), vehicle: methylcellulose (MC)) was 0 of 6 and the survivor count (dose: 200.0 mg/kg/injection, schedule: Q01DX015 (ip), vehicle: methylcellulose (MC)) was 0 of 6. The survivor count (dose: 400.0 mg/kg/injection, schedule: Q01DX015 (ip), vehicle: methylcellulose (MC)) was 0 of 6.
With `NC(=S)N/N=C(/Cc1ccccc1)CC(O)(C(F)(F)F)C(F)(F)F` the survivor count (dose: 200.0 mg/kg/injection, schedule: Q01DX009 (ip), vehicle: gum acacia) was 0 of 6 and the survivor count (dose: 400.0 mg/kg/injection, schedule: Q04DX003 (ip), vehicle: gum acacia) was 0 of 6.
For `ClC1(Cl)C2CCCCC21N1CCCCC1` (centres undefined), the survivor count (dose: 200.0 mg/kg/injection, schedule: Q01DX009 (ip), vehicle: saline) was 0 of 6 and the survivor count (dose: 400.0 mg/kg/injection, schedule: Q01DX001 (ip), vehicle: saline) was 0 of 6.
For `CC(C)(C)c1ccc(CC#N)cc1`, the survivor count [1] was 0 of 6, the survivor count [2] was 0 of 6 and the survivor count [3] was 0 of 6.
In the case of `CCC[CH2][Sn](=[S])[CH2]CCC`, the T/C (dose: 1.56 mg/kg/injection, schedule: Q01DX009 (ip), vehicle: other) is reported as 138 % of control, the T/C [4] is reported as 131 % of control and the survivor count [4] is reported as 6 of 6. The survivor count (dose: 12.5 mg/kg/injection, schedule: Q04DX003 (ip), vehicle: other) was 6 of 6, the survivor count (dose: 25.0 mg/kg/injection, schedule: Q01DX009 (ip), vehicle: other) was 6 of 6 and the survivor count (dose: 25.0 mg/kg/injection, schedule: Q04DX003 (ip), vehicle: other) was 6 of 6. The survivor count [5] was 6 of 6 and the survivor count (dose: 50.0 mg/kg/injection, schedule: Q04DX003 (ip), vehicle: other) was 3 of 6 and 6 of 6.
In the case of `CN(Cc1cnc2nc(N)nc(N)c2n1)c1ccc(C(=O)NC(CCC(=O)OC(C)(C)C)C(=O)OC(C)(C)C)cc1` (centres undefined), the T/C (dose: 12.5 mg/kg/injection, schedule: Q01DX009 (ip), vehicle: Klucel (hydroxypropylcellulose) (HPC)) is reported as 135 % of control, the survivor count [6] is reported as 6 of 6 and the T/C [2] is reported as 145 % of control. For the same compound, the survivor count [3] was 3 of 3.
`C#CP(CCCC)CCCC` was tested, and the survivor count (dose: 200.0 mg/kg/injection, schedule: Q04DX002 (ip), vehicle: saline with Tween-80) was 0 of 3 and the survivor count (dose: 400.0 mg/kg/injection, schedule: Q04DX002 (ip), vehicle: saline with Tween-80) was 0 of 3.
With `C/C(=N/NC(N)=S)c1ccc[nH]1` the survivor count (dose: 400.0 mg/kg/injection, schedule: Q01DX001 (ip), vehicle: Klucel (hydroxypropylcellulose) (HPC)) was 0 of 6.
`Cc1cc(C(C)C)cc(C(C)C)c1` was tested, and the survivor count [7] was 6 of 6.
For `NNC(=O)c1ccccn1`, the survivor count [8] was 0 of 6, the survivor count (dose: 300.0 mg/kg/injection, schedule: Q01DX001 (ip), vehicle: water) was 0 of 6 and the survivor count [9] was 0 of 6. For the same compound, the survivor count (dose: 500.0 mg/kg/injection, schedule: Q01DX001 (ip), vehicle: water) was 0 of 6.
In the case of `CCOP(=O)(Cc1ccc(N(CCI)CCI)cc1)OCC`, the survivor count (dose: 300.0 mg/kg/injection, schedule: Q01DX001 (ip), vehicle: saline) is reported as 2 of 6.
In the case of `CNS(=O)(=O)c1ccccc1CC(O)(c1ccccc1)c1ccccc1`, the survivor count (dose: 400.0 mg/kg/injection, schedule: Q01DX001 (ip), vehicle: steroid suspending solution) is reported as 6 of 6.
With `C=CCN(C(=O)CCN1CC1)C1CCCCC1` the survivor count (dose: 50.0 mg/kg/injection, schedule: Q01DX001 (ip), vehicle: carboxymethylcellulose (CMC)) was 2 of 4, the survivor count (dose: 100.0 mg/kg/injection, schedule: Q01DX001 (ip), vehicle: carboxymethylcellulose (CMC)) was 0 of 4 and the survivor count (dose: 200.0 mg/kg/injection, schedule: Q01DX001 (ip), vehicle: carboxymethylcellulose (CMC)) was 0 of 4. The survivor count (dose: 400.0 mg/kg/injection, schedule: Q01DX001 (ip), vehicle: carboxymethylcellulose (CMC)) was 0 of 4.
For `CC1CC(C)S(=O)(=O)C1` (centres undefined), the survivor count (dose: 100.0 mg/kg/injection, schedule: Q01DX001 (ip), vehicle: saline) was 0 of 6.
With `CCNc1ncnc2c1c(C(N)=S)cn2C1OC(CO)C(O)C1O` (centres undefined) the T/C (dose: 12.5 mg/kg/injection, schedule: Q01DX005 (ip), vehicle: saline) was 127 % of control, the T/C (dose: 25.0 mg/kg/injection, schedule: Q01DX005 (ip), vehicle: saline) was 142 % of control and the T/C (dose: 35.0 mg/kg/injection, schedule: Q01DX005 (ip), vehicle: saline) was 125 % of control. For the same compound, the survivor count (dose: 50.0 mg/kg/injection, schedule: Q01DX005 (ip), vehicle: saline) was 6 of 6, the survivor count [10] was 0 of 6 and the survivor count (dose: 100.0 mg/kg/injection, schedule: Q01DX005 (ip), vehicle: saline) was 3 of 6. The survivor count (dose: 200.0 mg/kg/injection, schedule: Q01DX005 (ip), vehicle: saline) was 3 of 6.
`COc1ccc(CN(C)CCN(C)CCN(C)Cc2ccc(OC)cc2)cc1` was tested, and the survivor count [8] was 0 of 6 and the survivor count [9] was 0 of 6.
In the case of `O=C1c2ccccc2C(Br)(c2ccccc2)C1Br` (centres undefined), the survivor count [5] is reported as 3 of 6, the survivor count (dose: 100.0 mg/kg/injection, schedule: Q01DX009 (ip), vehicle: other) is reported as 2 of 6 and the survivor count (dose: 200.0 mg/kg/injection, schedule: Q01DX009 (ip), vehicle: other) is reported as 1 of 6.
For `N#CCOc1ccc(Cl)cc1`, the survivor count [10] was 5 of 6, the survivor count [6] was 0 of 6 and the survivor count (dose: 200.0 mg/kg/injection, schedule: Q04DX002 (ip), vehicle: Klucel (hydroxypropylcellulose) (HPC)) was 3 of 3. The survivor count (dose: 400.0 mg/kg/injection, schedule: Q04DX002 (ip), vehicle: Klucel (hydroxypropylcellulose) (HPC)) was 0 of 3.
With `C=C/C=C/CCN1CC1` the survivor count [1] was 0 of 6, the survivor count [2] was 0 of 6 and the survivor count [3] was 0 of 6.
With `Nc1ncnc(N)c1NC(=O)Cc1cccc([N+](=O)[O-])c1` the survivor count (dose: 100.0 mg/kg/injection, schedule: Q01DX001 (ip), vehicle: Klucel (hydroxypropylcellulose) (HPC)) was 3 of 6 and the survivor count (dose: 200.0 mg/kg/injection, schedule: Q01DX001 (ip), vehicle: Klucel (hydroxypropylcellulose) (HPC)) was 0 of 6.
`CCSc1nc(N)c(C(N)=O)cc1C#N` was tested, and the survivor count [7] was 5 of 6.
`CC12CCC(C/C1=N\O)C2(C)C` (centres undefined) was tested, and the survivor count (dose: 75.0 mg/kg/injection, schedule: Q01DX009 (ip), vehicle: saline with Tween-80) was 0 of 6, the survivor count (dose: 150.0 mg/kg/injection, schedule: Q01DX009 (ip), vehicle: saline with Tween-80) was 0 of 6 and the survivor count (dose: 300.0 mg/kg/injection, schedule: Q01DX009 (ip), vehicle: saline with Tween-80) was 0 of 6.
`NS(=O)(=O)c1nc[nH]c1[N+](=O)[O-]` was tested, and the survivor count (dose: 400.0 mg/kg/injection, schedule: Q01DX009 (ip), vehicle: acetone) was 1 of 6.

From PubChem BioAssay AID248 (DTP/NCI, 2004)
